Source: publication PMC6765148
These are yes or no findings as the source states them, for the method shown. Binding seen in cells or lysates may run through a third protein. Some entries that bind do so weakly or less than the wild type.

Sequences of proteins named here, by UniProt entry; tags and fusion partners are left off.
UniProt P51784: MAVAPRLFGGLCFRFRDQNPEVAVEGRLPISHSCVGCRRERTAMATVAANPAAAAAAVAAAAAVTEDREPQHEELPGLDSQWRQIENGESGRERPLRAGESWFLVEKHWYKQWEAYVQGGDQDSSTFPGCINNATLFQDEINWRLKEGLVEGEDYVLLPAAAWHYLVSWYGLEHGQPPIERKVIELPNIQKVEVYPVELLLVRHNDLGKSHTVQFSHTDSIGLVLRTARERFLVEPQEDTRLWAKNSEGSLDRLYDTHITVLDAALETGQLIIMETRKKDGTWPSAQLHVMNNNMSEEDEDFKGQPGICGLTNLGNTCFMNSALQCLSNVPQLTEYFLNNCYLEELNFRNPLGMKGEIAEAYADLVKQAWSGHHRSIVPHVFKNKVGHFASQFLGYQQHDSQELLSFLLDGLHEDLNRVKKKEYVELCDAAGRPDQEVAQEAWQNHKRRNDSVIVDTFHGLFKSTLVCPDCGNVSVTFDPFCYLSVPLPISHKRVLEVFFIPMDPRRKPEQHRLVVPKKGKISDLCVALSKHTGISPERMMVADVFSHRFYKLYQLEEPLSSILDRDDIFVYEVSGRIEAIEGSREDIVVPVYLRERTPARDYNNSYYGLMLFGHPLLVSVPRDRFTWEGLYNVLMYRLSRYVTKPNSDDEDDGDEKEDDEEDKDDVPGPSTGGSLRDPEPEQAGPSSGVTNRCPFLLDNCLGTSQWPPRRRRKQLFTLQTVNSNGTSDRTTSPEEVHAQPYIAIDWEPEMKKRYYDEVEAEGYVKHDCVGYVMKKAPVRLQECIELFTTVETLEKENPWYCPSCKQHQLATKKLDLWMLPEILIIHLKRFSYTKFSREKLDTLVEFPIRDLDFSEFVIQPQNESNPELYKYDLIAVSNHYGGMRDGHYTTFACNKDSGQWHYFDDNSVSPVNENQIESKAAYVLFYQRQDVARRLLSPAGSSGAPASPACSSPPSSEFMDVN
UniProt P09874: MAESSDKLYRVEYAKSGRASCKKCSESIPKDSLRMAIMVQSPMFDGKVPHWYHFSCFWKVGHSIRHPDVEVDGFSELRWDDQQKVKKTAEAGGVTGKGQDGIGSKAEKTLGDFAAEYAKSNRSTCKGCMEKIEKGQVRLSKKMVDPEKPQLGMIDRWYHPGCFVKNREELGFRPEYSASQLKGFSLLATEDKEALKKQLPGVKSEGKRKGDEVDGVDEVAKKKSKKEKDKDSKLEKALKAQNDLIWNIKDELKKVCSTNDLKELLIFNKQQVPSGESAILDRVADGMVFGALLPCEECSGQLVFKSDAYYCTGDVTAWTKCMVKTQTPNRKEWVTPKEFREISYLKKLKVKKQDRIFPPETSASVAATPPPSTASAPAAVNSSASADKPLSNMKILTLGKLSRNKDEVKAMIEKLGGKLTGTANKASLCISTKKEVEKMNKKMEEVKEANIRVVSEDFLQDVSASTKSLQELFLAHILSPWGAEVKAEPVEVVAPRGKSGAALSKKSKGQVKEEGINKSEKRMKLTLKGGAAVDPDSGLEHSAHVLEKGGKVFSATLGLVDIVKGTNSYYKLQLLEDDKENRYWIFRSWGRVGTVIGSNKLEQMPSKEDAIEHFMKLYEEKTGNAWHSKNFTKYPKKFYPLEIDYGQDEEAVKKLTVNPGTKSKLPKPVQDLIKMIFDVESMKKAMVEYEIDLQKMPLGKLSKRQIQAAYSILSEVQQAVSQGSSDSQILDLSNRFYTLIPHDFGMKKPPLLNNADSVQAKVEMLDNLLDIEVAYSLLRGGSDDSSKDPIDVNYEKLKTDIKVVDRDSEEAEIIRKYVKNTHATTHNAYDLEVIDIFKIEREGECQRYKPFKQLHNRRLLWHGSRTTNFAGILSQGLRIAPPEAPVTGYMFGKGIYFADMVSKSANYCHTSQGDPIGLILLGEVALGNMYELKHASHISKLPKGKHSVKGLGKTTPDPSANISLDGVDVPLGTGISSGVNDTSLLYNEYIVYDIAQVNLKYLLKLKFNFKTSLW
UniProt Q92769: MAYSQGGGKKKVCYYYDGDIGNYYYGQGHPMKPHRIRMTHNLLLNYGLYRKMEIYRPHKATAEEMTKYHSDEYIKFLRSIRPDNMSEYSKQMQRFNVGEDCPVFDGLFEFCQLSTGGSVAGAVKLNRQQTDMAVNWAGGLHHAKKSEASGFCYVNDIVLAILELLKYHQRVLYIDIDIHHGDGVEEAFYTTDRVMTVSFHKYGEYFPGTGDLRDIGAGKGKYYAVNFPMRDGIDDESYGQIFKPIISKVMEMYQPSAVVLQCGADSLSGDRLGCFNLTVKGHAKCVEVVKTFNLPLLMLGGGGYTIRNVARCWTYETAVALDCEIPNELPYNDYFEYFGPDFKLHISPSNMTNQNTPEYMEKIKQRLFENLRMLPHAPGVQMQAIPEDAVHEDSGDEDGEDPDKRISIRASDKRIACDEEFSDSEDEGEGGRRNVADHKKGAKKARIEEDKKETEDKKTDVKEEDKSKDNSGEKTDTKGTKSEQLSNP
UniProt Q14839: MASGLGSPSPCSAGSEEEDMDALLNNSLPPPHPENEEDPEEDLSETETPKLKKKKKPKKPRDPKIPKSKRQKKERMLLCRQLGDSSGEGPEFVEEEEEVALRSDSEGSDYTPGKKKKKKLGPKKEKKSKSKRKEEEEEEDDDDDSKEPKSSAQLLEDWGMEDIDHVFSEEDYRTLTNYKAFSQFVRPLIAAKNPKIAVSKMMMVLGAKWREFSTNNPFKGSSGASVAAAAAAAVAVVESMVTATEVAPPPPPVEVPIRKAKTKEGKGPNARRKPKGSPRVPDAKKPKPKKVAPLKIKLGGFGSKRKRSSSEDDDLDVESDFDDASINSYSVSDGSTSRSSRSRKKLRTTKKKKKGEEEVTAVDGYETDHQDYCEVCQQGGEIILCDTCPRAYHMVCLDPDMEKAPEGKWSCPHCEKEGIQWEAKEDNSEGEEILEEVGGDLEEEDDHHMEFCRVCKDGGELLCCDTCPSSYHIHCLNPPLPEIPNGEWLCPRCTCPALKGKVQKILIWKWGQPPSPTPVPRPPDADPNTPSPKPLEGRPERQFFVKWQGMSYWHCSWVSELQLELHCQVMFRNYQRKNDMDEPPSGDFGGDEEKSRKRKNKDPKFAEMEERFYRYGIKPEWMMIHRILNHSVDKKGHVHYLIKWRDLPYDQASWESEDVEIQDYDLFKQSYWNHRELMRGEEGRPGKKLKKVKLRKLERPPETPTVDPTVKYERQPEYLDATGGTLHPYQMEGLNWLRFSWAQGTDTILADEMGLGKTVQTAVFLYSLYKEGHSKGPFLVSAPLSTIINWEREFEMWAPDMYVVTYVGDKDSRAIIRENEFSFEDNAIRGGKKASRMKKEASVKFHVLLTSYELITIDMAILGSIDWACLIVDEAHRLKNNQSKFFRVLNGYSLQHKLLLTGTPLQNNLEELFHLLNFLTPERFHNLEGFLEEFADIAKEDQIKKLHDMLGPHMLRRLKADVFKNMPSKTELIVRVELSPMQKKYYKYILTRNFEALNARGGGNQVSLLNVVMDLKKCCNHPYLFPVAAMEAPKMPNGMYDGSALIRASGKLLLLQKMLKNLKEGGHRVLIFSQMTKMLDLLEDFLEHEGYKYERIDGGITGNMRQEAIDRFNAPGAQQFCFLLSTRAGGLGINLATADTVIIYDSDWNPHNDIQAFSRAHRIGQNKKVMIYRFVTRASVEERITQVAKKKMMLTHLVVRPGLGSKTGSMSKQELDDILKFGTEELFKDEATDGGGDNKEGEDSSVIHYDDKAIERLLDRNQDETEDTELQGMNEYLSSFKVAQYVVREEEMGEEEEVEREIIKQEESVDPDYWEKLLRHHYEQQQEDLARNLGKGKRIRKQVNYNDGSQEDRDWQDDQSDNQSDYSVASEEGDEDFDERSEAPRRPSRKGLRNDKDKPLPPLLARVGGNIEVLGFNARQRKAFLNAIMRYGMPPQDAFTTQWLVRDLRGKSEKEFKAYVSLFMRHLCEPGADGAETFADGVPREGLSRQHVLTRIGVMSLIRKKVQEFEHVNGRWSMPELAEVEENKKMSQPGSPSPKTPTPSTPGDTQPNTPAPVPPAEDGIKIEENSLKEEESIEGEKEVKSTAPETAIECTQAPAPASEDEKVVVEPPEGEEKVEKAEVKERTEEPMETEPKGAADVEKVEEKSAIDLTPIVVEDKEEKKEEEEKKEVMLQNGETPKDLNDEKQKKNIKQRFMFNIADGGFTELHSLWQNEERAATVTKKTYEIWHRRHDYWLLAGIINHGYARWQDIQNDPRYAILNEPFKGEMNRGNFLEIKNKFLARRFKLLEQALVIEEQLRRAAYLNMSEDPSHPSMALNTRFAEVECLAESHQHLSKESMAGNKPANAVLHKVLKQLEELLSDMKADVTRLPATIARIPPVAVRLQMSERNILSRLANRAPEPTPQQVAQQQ
UniProt Q13547: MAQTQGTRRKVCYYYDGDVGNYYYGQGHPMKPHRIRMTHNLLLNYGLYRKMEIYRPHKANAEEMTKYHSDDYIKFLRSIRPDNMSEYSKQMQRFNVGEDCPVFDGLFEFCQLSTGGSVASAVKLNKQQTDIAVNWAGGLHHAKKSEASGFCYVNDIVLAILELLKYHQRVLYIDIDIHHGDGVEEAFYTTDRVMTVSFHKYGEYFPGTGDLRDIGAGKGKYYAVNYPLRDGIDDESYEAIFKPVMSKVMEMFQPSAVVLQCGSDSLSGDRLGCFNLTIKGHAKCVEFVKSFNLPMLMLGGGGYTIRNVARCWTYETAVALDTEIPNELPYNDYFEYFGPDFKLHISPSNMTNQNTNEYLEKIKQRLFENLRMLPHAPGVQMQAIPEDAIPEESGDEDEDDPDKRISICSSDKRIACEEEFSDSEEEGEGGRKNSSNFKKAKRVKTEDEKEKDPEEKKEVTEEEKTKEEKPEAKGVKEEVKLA
UniProt Q09028: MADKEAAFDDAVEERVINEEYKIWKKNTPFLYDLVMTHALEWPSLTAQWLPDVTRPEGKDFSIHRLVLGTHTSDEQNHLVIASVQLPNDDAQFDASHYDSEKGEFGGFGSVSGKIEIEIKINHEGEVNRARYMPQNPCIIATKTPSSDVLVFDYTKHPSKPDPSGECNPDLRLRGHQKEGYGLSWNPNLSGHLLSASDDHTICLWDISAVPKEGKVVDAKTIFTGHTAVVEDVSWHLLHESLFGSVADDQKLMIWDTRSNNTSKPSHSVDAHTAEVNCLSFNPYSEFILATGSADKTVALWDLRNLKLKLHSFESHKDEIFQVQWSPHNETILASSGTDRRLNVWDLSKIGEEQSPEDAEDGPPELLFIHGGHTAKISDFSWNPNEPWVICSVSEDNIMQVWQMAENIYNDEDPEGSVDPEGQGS

Assays:
[1] = biological target: USP11 (endogenous, U2OS) (human (endogenous in U2OS)) (UniProt P51784); test: co-IP; extracts of U2OS cells, untreated or exposed to IR (6 Gy, 8 h in Figure 3B), immunoprecipitated and immunoblotted with antibodies as indicated
[2] = biological target: USP11 (endogenous, HEK293T) (human (endogenous in HEK293T)) (UniProt P51784); test: co-IP; whole-cell lysates of HEK293T, IP with anti-USP11 or IgG, immunoblot for endogenous NuRD components; HEK293T also after IR (6 Gy, 8 h), MMS (0.001%, 4 h) or MMC (1 μg/ml, 4 h) (Figure 3B, C)
FLAG-USP11 = FLAG-USP11 (UniProt P51784); test: co-IP; whole-cell lysates of HEK293T transfected with FLAG-USP11, IP with anti-FLAG, immunoblot for NuRD components
GST-fused USP11 = GST-fused USP11 (UniProt P51784); test: pull-down; bacterially expressed GST or GST-fused USP11 with in vitro transcribed/translated individual NuRD components; only the target purified

binding [1]	binding [2]	binding (FLAG-USP11)	binding (GST-fused USP11)	Substance
binds				PARP1 (endogenous, U2OS) (from UniProt P09874 1-1014) (enzyme)
	binds	binds		HDAC2 (endogenous, HEK293T) (from UniProt Q92769 1-488) (enzyme)
	binds	binds		Mi-2β (endogenous, HEK293T) (from UniProt Q14839 1-1912)

More lines, now with the values behind:

Substance	binding [1]	binding [2]	binding (FLAG-USP11)	binding (GST-fused USP11)
HDAC1 (endogenous, HEK293T) (from UniProt Q13547 1-482) (enzyme)		binds	binds	
HDAC2 (in vitro transcribed/translated) (from UniProt Q92769 1-488) (enzyme)				binds
RbAp48 (endogenous, HEK293T) (from UniProt Q09028 1-425)		binds	binds	
